According to PMC5796017, “Enantiomeric Effect of D-Amino Acid Substitution on the Mechanism of Action of α-Helical Membrane-Active Peptides” (International Journal of Molecular Sciences, 2017):

What was measured:
[1] = Tryptophan fluorescence in HEPES buffer; settings: HEPES buffer pH 7.4, 16 μM peptide, 25 °C, excitation 280 nm
[2] = Tryptophan fluorescence with LUV model membrane; settings: 16 μM peptide; for Tryptophan emission maximum wavelength, PC/PG: 0.1 mM LUVs mimicking prokaryotic membranes, 25 °C, 10 min; for Blue Shift, PC/PG: versus HEPES buffer, 0.1 mM LUVs
[3] = Tryptophan fluorescence with LUV model membrane; settings: 16 μM peptide; for Tryptophan emission maximum wavelength, PC/SM/PE/PS/Chol: 0.1 mM LUVs mimicking cancer cell membranes, 25 °C, 10 min; for Blue Shift, PC/SM/PE/PS/Chol: versus HEPES buffer, 0.1 mM LUVs
[4] = Tryptophan fluorescence with LUV model membrane; settings: 16 μM peptide; for Tryptophan emission maximum wavelength, PC/Chol: 0.1 mM LUVs mimicking normal eukaryotic membranes, 10 min; for Tryptophan emission maximum wavelength, PC/Chol / Tryptophan fluorescence Intensity, PC/Chol: 25 °C; for Tryptophan fluorescence Intensity, PC/Chol / Blue Shift, PC/Chol: 0.1 mM LUVs; for Blue Shift, PC/Chol: versus HEPES buffer

Row | SMILES | Tryptophan fluorescence emission maximum in HEPES [1] [nm] | Tryptophan emission maximum wavelength, PC/PG [2] [nm] | Blue Shift, PC/PG [2] [nm] | Tryptophan emission maximum wavelength, PC/SM/PE/PS/Chol [3] [nm] | Blue Shift, PC/SM/PE/PS/Chol [3] [nm] | Tryptophan emission maximum wavelength, PC/Chol [4] [nm] | Tryptophan fluorescence Intensity, PC/Chol [4] | Blue Shift, PC/Chol [4] [nm]
1 | CC[C@H](C)[C@H](NC(=O)[C@H](C)NC(=O)[C@H](CCCCN)NC(=O)[C@H](CC(C)C)NC(=O)[C@H](C)NC(=O)[C@@H](NC(=O)[C@H](Cc1c[nH]cn1)NC(=O)[C@H](CC(C)C)NC(=O)[C@H](NC(=O)[C@@H](NC(=O)[C@H](CCCCN)NC(=O)[C@H](CCCCN)NC(=O)[C@@H](C)NC(=O)[C@H](CO)NC(=O)[C@H](CCCCN)NC(=O)[C@H](Cc1ccccc1)NC(=O)[C@@H](NC(=O)[C@H](CCCCN)NC(=O)[C@H](CC(C)C)NC(=O)[C@H](Cc1ccccc1)NC(=O)[C@H](CO)NC(=O)[C@H](CCCCN)NC(=O)[C@H](Cc1c[nH]c2ccccc12)NC(=O)[C@H](CCCCN)NC(C)=O)[C@@H](C)O)[C@@H](C)O)C(C)C)[C@@H](C)O)C(=O)N[C@@H](CO)C(=O)N[C@@H](CO)C(N)=O [A12D/V16D] | 350 | 336 | 14 | – | – | – | – | –
2 | CC[C@H](C)[C@H](NC(=O)[C@H](C)NC(=O)[C@H](CCCCN)NC(=O)[C@H](CC(C)C)NC(=O)[C@H](C)NC(=O)[C@@H](NC(=O)[C@H](Cc1c[nH]cn1)NC(=O)[C@H](CC(C)C)NC(=O)[C@H](NC(=O)[C@@H](NC(=O)[C@H](CCCCN)NC(=O)[C@H](CCCCN)NC(=O)[C@@H](C)NC(=O)[C@H](CO)NC(=O)[C@H](CCCCN)NC(=O)[C@@H](Cc1ccccc1)NC(=O)[C@@H](NC(=O)[C@H](CCCCN)NC(=O)[C@H](CC(C)C)NC(=O)[C@H](Cc1ccccc1)NC(=O)[C@H](CO)NC(=O)[C@H](CCCCN)NC(=O)[C@H](Cc1c[nH]c2ccccc12)NC(=O)[C@H](CCCCN)NC(C)=O)[C@@H](C)O)[C@@H](C)O)C(C)C)[C@@H](C)O)C(=O)N[C@@H](CO)C(=O)N[C@@H](CO)C(N)=O [F9D/A12D/V16D] | – | 335 | 11 | 337 | 9 | 346 | 261 | 0
3 | CC[C@H](C)[C@H](NC(=O)[C@H](C)NC(=O)[C@H](CCCCN)NC(=O)[C@H](CC(C)C)NC(=O)[C@H](C)NC(=O)[C@@H](NC(=O)[C@H](Cc1c[nH]cn1)NC(=O)[C@H](CC(C)C)NC(=O)[C@@H](NC(=O)[C@@H](NC(=O)[C@H](CCCCN)NC(=O)[C@H](CCCCN)NC(=O)[C@@H](C)NC(=O)[C@H](CO)NC(=O)[C@H](CCCCN)NC(=O)[C@@H](Cc1ccccc1)NC(=O)[C@@H](NC(=O)[C@H](CCCCN)NC(=O)[C@H](CC(C)C)NC(=O)[C@H](Cc1ccccc1)NC(=O)[C@H](CO)NC(=O)[C@H](CCCCN)NC(=O)[C@H](Cc1c[nH]c2ccccc12)NC(=O)[C@H](CCCCN)NC(C)=O)[C@@H](C)O)[C@@H](C)O)C(C)C)[C@@H](C)O)C(=O)N[C@@H](CO)C(=O)N[C@@H](CO)C(N)=O [F9D/A12D] | 350 | 335 | 15 | 331 | 19 | – | – | –
4 | CC[C@H](C)[C@H](NC(=O)[C@H](C)NC(=O)[C@H](CCCCN)NC(=O)[C@H](CC(C)C)NC(=O)[C@H](C)NC(=O)[C@@H](NC(=O)[C@H](Cc1c[nH]cn1)NC(=O)[C@H](CC(C)C)NC(=O)[C@@H](NC(=O)[C@H](NC(=O)[C@@H](CCCCN)NC(=O)[C@H](CCCCN)NC(=O)[C@H](C)NC(=O)[C@H](CO)NC(=O)[C@H](CCCCN)NC(=O)[C@H](Cc1ccccc1)NC(=O)[C@@H](NC(=O)[C@H](CCCCN)NC(=O)[C@H](CC(C)C)NC(=O)[C@H](Cc1ccccc1)NC(=O)[C@H](CO)NC(=O)[C@H](CCCCN)NC(=O)[C@H](Cc1c[nH]c2ccccc12)NC(=O)[C@H](CCCCN)NC(C)=O)[C@@H](C)O)[C@H](C)O)C(C)C)[C@@H](C)O)C(=O)N[C@@H](CO)C(=O)N[C@@H](CO)C(N)=O [K14D/T15D] | – | 336 | 13 | – | – | – | – | –
5 | CC[C@H](C)[C@H](NC(=O)[C@H](C)NC(=O)[C@H](CCCCN)NC(=O)[C@H](CC(C)C)NC(=O)[C@H](C)NC(=O)[C@@H](NC(=O)[C@H](Cc1c[nH]cn1)NC(=O)[C@H](CC(C)C)NC(=O)[C@@H](NC(=O)[C@@H](NC(=O)[C@H](CCCCN)NC(=O)[C@H](CCCCN)NC(=O)[C@@H](C)NC(=O)[C@H](CO)NC(=O)[C@H](CCCCN)NC(=O)[C@H](Cc1ccccc1)NC(=O)[C@@H](NC(=O)[C@H](CCCCN)NC(=O)[C@H](CC(C)C)NC(=O)[C@H](Cc1ccccc1)NC(=O)[C@H](CO)NC(=O)[C@H](CCCCN)NC(=O)[C@H](Cc1c[nH]c2ccccc12)NC(=O)[C@H](CCCCN)NC(C)=O)[C@@H](C)O)[C@@H](C)O)C(C)C)[C@@H](C)O)C(=O)N[C@@H](CO)C(=O)N[C@@H](CO)C(N)=O [Peptide A12D] | – | 328 | 23 | 327 | 24 | 345 | 464 | 6
6 | CC[C@H](C)[C@H](NC(=O)[C@H](C)NC(=O)[C@H](CCCCN)NC(=O)[C@H](CC(C)C)NC(=O)[C@H](C)NC(=O)[C@@H](NC(=O)[C@H](Cc1c[nH]cn1)NC(=O)[C@H](CC(C)C)NC(=O)[C@@H](NC(=O)[C@@H](NC(=O)[C@@H](CCCCN)NC(=O)[C@H](CCCCN)NC(=O)[C@H](C)NC(=O)[C@H](CO)NC(=O)[C@H](CCCCN)NC(=O)[C@H](Cc1ccccc1)NC(=O)[C@@H](NC(=O)[C@H](CCCCN)NC(=O)[C@H](CC(C)C)NC(=O)[C@H](Cc1ccccc1)NC(=O)[C@H](CO)NC(=O)[C@H](CCCCN)NC(=O)[C@H](Cc1c[nH]c2ccccc12)NC(=O)[C@H](CCCCN)NC(C)=O)[C@@H](C)O)[C@@H](C)O)C(C)C)[C@@H](C)O)C(=O)N[C@@H](CO)C(=O)N[C@@H](CO)C(N)=O [Peptide K14D] | – | 332 | 17 | 329 | 20 | – | – | –
7 | CC[C@H](C)[C@H](NC(=O)[C@H](C)NC(=O)[C@H](CCCCN)NC(=O)[C@H](CC(C)C)NC(=O)[C@H](C)NC(=O)[C@@H](NC(=O)[C@H](Cc1c[nH]cn1)NC(=O)[C@H](CC(C)C)NC(=O)[C@@H](NC(=O)[C@@H](NC(=O)[C@H](CCCCN)NC(=O)[C@H](CCCCN)NC(=O)[C@H](C)NC(=O)[C@H](CO)NC(=O)[C@H](CCCCN)NC(=O)[C@H](Cc1ccccc1)NC(=O)[C@@H](NC(=O)[C@H](CCCCN)NC(=O)[C@H](CC(C)C)NC(=O)[C@H](Cc1ccccc1)NC(=O)[C@H](CO)NC(=O)[C@H](CCCCN)NC(=O)[C@H](Cc1c[nH]c2ccccc12)NC(=O)[C@H](CCCCN)NC(C)=O)[C@@H](C)O)[C@@H](C)O)C(C)C)[C@@H](C)O)C(=O)N[C@@H](CO)C(=O)N[C@@H](CO)C(N)=O [Peptide V13K] | – | 329 | 24 | 330 | 23 | 344 | 486 | 9
8 | CC[C@H](C)[C@H](NC(=O)[C@H](C)NC(=O)[C@H](CCCCN)NC(=O)[C@H](CC(C)C)NC(=O)[C@H](C)NC(=O)[C@@H](NC(=O)[C@H](Cc1c[nH]cn1)NC(=O)[C@H](CC(C)C)NC(=O)[C@@H](NC(=O)[C@H](NC(=O)[C@@H](CCCCN)NC(=O)[C@H](CCCCN)NC(=O)[C@H](C)NC(=O)[C@@H](CO)NC(=O)[C@H](CCCCN)NC(=O)[C@H](Cc1ccccc1)NC(=O)[C@@H](NC(=O)[C@H](CCCCN)NC(=O)[C@H](CC(C)C)NC(=O)[C@H](Cc1ccccc1)NC(=O)[C@H](CO)NC(=O)[C@H](CCCCN)NC(=O)[C@H](Cc1c[nH]c2ccccc12)NC(=O)[C@H](CCCCN)NC(C)=O)[C@@H](C)O)[C@H](C)O)C(C)C)[C@@H](C)O)C(=O)N[C@@H](CO)C(=O)N[C@@H](CO)C(N)=O [S11D/K14D/T15D] | – | 339 | 6 | 335 | 10 | – | – | –
9 | CC[C@H](C)[C@H](NC(=O)[C@H](C)NC(=O)[C@H](CCCCN)NC(=O)[C@H](CC(C)C)NC(=O)[C@H](C)NC(=O)[C@@H](NC(=O)[C@H](Cc1c[nH]cn1)NC(=O)[C@H](CC(C)C)NC(=O)[C@@H](NC(=O)[C@@H](NC(=O)[C@@H](CCCCN)NC(=O)[C@H](CCCCN)NC(=O)[C@H](C)NC(=O)[C@@H](CO)NC(=O)[C@H](CCCCN)NC(=O)[C@H](Cc1ccccc1)NC(=O)[C@@H](NC(=O)[C@H](CCCCN)NC(=O)[C@H](CC(C)C)NC(=O)[C@H](Cc1ccccc1)NC(=O)[C@H](CO)NC(=O)[C@H](CCCCN)NC(=O)[C@H](Cc1c[nH]c2ccccc12)NC(=O)[C@H](CCCCN)NC(C)=O)[C@@H](C)O)[C@@H](C)O)C(C)C)[C@@H](C)O)C(=O)N[C@@H](CO)C(=O)N[C@@H](CO)C(N)=O [S11D/K14D] | 347 | 332 | 15 | 331 | 16 | 345 | 414 | 2
